# According to PubChem BioAssay AID485314 (National Center for Advancing Translational Sciences (NCATS), 2010):
# Values joined by “and” are separate entries in the source; they are usually repeats but may differ in a detail not shown here. Equal values may be shown once. Among all 340,000 compounds or so, about 4,500 (1.3%) were called active. The shares of active, inactive and inconclusive entries below differ from those in the screen. Calls follow the shape of the dose curve; as a rule, active = well fitted inhibition curve with a large enough effect; inconclusive = small, poorly fitted or top-dose-only effect, or another doubt; inactive = no such curve, though single readings can be large or run the other way. Where the call is inconclusive, the potency comes from a doubtful curve fit.
# Target: DNA polymerase beta (Homo sapiens) (UniProt P06746)
# Assay: qHTS Assay for Inhibitors of DNA Polymerase Beta
# Settings: Pol beta primer extension/strand displacement, fluorescence kinetic; activity change, negative = inhibition: at 114 µM (top of the series)
# In short: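 Curves were derived by four-parameter Hill fits of normalized qHTS data. The kinetic fluorescent primer-extension read was taken at 0 and 10 min after 50 nM substrate, following a 15 min room-temperature preincubation of 10 nM enzyme with compounds.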
# % is scaled to controls: 0 for no effect and ±100 for the full control effect; potency is read from the fitted curve at half-maximal effect.
Compound,Potency,"activity change, negative = inhibition"
COC(=O)c1sc2nc(N3CCCCC3)c3c(c2c1N)CCCC3,"inconclusive: 0.282 µM [inhibitor, full curve, poor fit]",–
CC(=O)N1CCC(C(=O)Nc2ccccc2)(N(Cc2ccccc2)C(=O)c2cccnc2)CC1,–,inactive: 71.6%
CC1CCn2c(nc3cc(C(=O)NCc4ccc(F)cc4)ccc32)C1 (stereo not given),–,inactive: -0.0949%
O=C(O)CC1CCC(=C(Cl)Cl)C1 (stereo not given),"inconclusive: 100 µM [inhibitor, single point]",–
Cc1ccc(-c2csc(/C(C#N)=C(\O)CCl)n2)cc1,"inconclusive: 15.8 µM [inhibitor, full curve]",–
CCCCCC(=O)N/N=C/c1ccc([N+](=O)[O-])o1,–,inactive: 6.17%
Cc1c(C(=O)O)sc(S(=O)(=O)N2CCNCC2)c1C(=O)O,"inconclusive: 14.1 µM [inhibitor, partial curve, poor fit]",–
CCC(C)Sc1nc2c(c(=O)[nH]1)C(c1cccs1)C1=C(CCCC1=O)N2 (stereo not given),active: 25.1 µM,–
Cc1ccc(NC(=O)CSc2nc3nc(C)cc(C)c3c(=O)[nH]2)cc1,active: 44.7 µM,–
O=C(N/N=C\c1ccc2c(c1)OCO2)c1ccc(Cn2cc(Br)c([N+](=O)[O-])n2)o1,"inconclusive: 35.5 µM [inhibitor, single point]",–
CCCC(=O)C1=C(O)C(C(=O)OC)C(C)(C)CC1=Nc1ccc(N)cc1 (stereo not given),"inconclusive: 39.8 µM [inhibitor, single point]",–
COc1cc(C(=O)Nc2cccc(OCc3cc(=O)n4cc(C)sc4n3)c2)cc(OC)c1OC,–,inactive: 4.86%
NNC(=O)CSCc1ccc(Cl)cc1Cl,"inconclusive: 22.4 µM [inhibitor, full curve, poor fit]",–
COc1ccc(/C=C2/NC(=O)N(CC(=O)Nc3cccc(C)c3)C2=O)cc1O,"inconclusive: 31.6 µM [inhibitor, partial curve]",–
COc1ccc(-c2nc(CCNC(=O)c3c(F)cccc3Cl)cs2)cc1,–,inactive: 7.15%
COc1ccc(N2C(=O)C(F)(F)C2c2cccc(F)c2)cc1 (stereo not given),"inconclusive: 31.6 µM [inhibitor, single point]",–
O=C(O)COc1ccccc1/C=N/NC(=O)/C(=C\c1ccc2c(c1)OCO2)NC(=O)c1ccccc1,–,inactive: -15%
CCCCNc1ccc(-c2nc(-c3ccncc3)no2)cc1[N+](=O)[O-],"inconclusive: 79.4 µM [inhibitor, single point]",–
CCCCc1nn2c(=O)cc(COC(=O)c3ccco3)nc2s1,–,inactive: 2.5%
CCCCCn1c(N)c(-c2nc3ccccc3o2)c2c([N+](=O)[O-])nn(C)c(=O)c21,active: 1.41 µM,–
c1ccc(-c2noc(-c3ccco3)n2)nc1,"inconclusive: 0.1 µM [inhibitor, full curve, poor fit]",–
CCOC(=O)c1c(C)c(C(=O)NCc2ccco2)c(C)n1Cc1ccccc1,active: 39.8 µM,–
COc1nc(N)c(S(=O)(=O)c2ccccc2C)cc1C#N,"inconclusive: 89.1 µM [inhibitor, single point]",–

Compound,Potency,"activity change, negative = inhibition"
Cc1ccccc1Nc1c(-c2cccnc2)nc2cccc(C)n12,"inconclusive: 126 nM [inhibitor, full curve, poor fit] and inconclusive: 79.4 µM [inhibitor, single point]",–
CCCN(CCC)C(=O)Cn1c(SCc2cccc(F)c2)nc2cccnc21,–,inactive: -15.8%
CCN(CC)S(=O)(=O)c1ccc(/C=C/C(=O)OCC(=O)N(C)C)cc1,"inconclusive: 1.58 µM [inhibitor, full curve, poor fit]",–
O=C(Nc1nc2ccccc2[nH]1)C1CC(=O)N(c2ccc3c(c2)OCCO3)C1 (stereo not given),"inconclusive: 12.6 µM [inhibitor, partial curve, poor fit]",–
O=C(C1CCC(Cn2c(=S)[nH]c3ccccc3c2=O)CC1)N1CCN(c2ccccn2)CC1 (stereo not given),"inconclusive: 89.1 µM [inhibitor, single point]",–
Cc1ccc(-c2nc(CCNC(=O)C(=O)Nc3ccc(C)c(Cl)c3)cs2)cc1,–,inactive: -10.6%
CCOC(=O)c1sc(NC(=O)c2nc3nc(C)cc(C(F)F)n3n2)c(C(=O)OC(C)C)c1C,–,inactive: -10%
CCCOc1ccc(CNC(=O)CCCN2C(=O)CSc3c2c(C)nn3-c2ccccc2)cc1,"inconclusive: 79.4 µM [inhibitor, single point]",–
Cc1ccccc1OCCN1C(=O)NC2(CCc3ccccc32)C1=O (stereo not given),"inconclusive: 3.16 µM [inhibitor, partial curve]",–
CC1=C(C(=O)Nc2ccccc2C)C(c2sccc2C)n2ncnc2N1 (stereo not given),–,inactive: 25.5%
Cc1nc(-c2ccc(F)cc2)sc1CCNC(=O)c1ccccc1C(F)(F)F,–,inactive: -18.9%
Cc1ccc(C(c2ccc(C)o2)c2cccc([N+](=O)[O-])c2O)o1,"inconclusive: 22.4 µM [inhibitor, full curve]",–
O=C(NCc1ccco1)C1CCCN(c2nnc(-n3cccc3)s2)C1 (stereo not given),"inconclusive: 35.5 µM [inhibitor, single point]",–
Cn1c(-c2cccc(Br)c2)cnc1NCc1cccc(F)c1,–,inactive: 2.41%
CCOC(=O)c1c2c([nH]c(=S)c1C#N)CCCC2,"inconclusive: 10 µM [inhibitor, partial curve]",–
N#Cc1nc(-c2ccco2)oc1N1CCc2ccccc2C1,"inconclusive: 35.5 µM [inhibitor, partial curve]",–
Cc1cc(C(=O)COC(=O)CCC(=O)c2ccc3c(c2)OCCO3)c(C)n1Cc1ccco1,"inconclusive: 10 µM [inhibitor, full curve]",–
O=C(NCCCN1CCN(c2ccccc2F)CC1)c1ccc2nc(Cc3ccccc3)oc2c1,"inconclusive: 79.4 µM [inhibitor, single point]",–
CCOc1ccc(-c2cc(NC(=O)Nc3ccccc3Cl)c(C(=O)OC)s2)cc1,–,inactive: 6.02%
Cc1cccc(NC(=O)/C(=C\c2ccc([N+](=O)[O-])o2)NC(=O)c2ccc(Cl)cc2)c1,active: 10 µM,–
Cc1ccc(C(=O)N2CCN(c3ccccc3)CC2)cc1NC(=O)c1nsc2ccccc12,"inconclusive: 89.1 µM [inhibitor, single point]",–
O=C(c1cnc2n(c1=O)CCS2)N1CCN(c2ccccc2Cl)CC1,"inconclusive: 70.8 µM [inhibitor, single point]",–

# Filtered by structure, the compounds so far containing a thiophene ring, fused or not.
Compound,Potency,"activity change, negative = inhibition"
COC(=O)c1sc2nc(N3CCCCC3)c3c(c2c1N)CCCC3,"inconclusive: 0.282 µM [inhibitor, full curve, poor fit]",–
Cc1c(C(=O)O)sc(S(=O)(=O)N2CCNCC2)c1C(=O)O,"inconclusive: 14.1 µM [inhibitor, partial curve, poor fit]",–
CCC(C)Sc1nc2c(c(=O)[nH]1)C(c1cccs1)C1=C(CCCC1=O)N2 (stereo not given),active: 25.1 µM,–
CCOC(=O)c1sc(NC(=O)c2nc3nc(C)cc(C(F)F)n3n2)c(C(=O)OC(C)C)c1C,–,inactive: -10%
CC1=C(C(=O)Nc2ccccc2C)C(c2sccc2C)n2ncnc2N1 (stereo not given),–,inactive: 25.5%
CCOc1ccc(-c2cc(NC(=O)Nc3ccccc3Cl)c(C(=O)OC)s2)cc1,–,inactive: 6.02%
